In patent US8536201B2, “Pesticidal arylpyrrolidines” (Bayer Intellectual Property GmbH, priority 2009, dated 2013):
Some results were stated once for a whole list of compounds, not compound by compound.

Key:
Type in all cases: in vivo
Ctenocephalides felis = Ctenocephalides felis test (CTECFE), blood feeding; details: 100 ppm in cattle blood; adult unfed fleas, after 2 days
Protocol: BIOLOGICAL TEST EXAMPLE 7
Ctenocephalides felis—Test (CTECFE)
(§1) Solvent: Dimethyl Sulfoxide
To produce a suitable preparation of active compound, 10 mg of active compound are dissolved in 0.5 ml solvent, and the concentrate is diluted with cattle blood to the desired concentration. Approximately 20 adult unfed (Ctenocephalides felis) are placed in flea chambers. The blood chamber, sealed with parafilm on the bottom, are filled with cattle blood supplied with compound solution and placed on top of the flea chamber, so that the fleas are able to suck the blood. The blood chamber is heated to 37° C. whereas the flea chamber is kept at room temperature.
After 2 days mortality in % is determined. 100% means that all the fleas have been killed; 0% means that none of the fleas have been killed.

Boophilus microplus [1] = assay: Boophilus microplus (dip); details: 100 ppm; adult engorged females immersed one minute, after 7 days
Protocol: BIOLOGICAL TEST EXAMPLE 5
Boophilus microplus (Dip)
as §1
To produce a suitable preparation of active compound, 10 mg of active compound are dissolved in 0.5 ml solvent, and the concentrate is diluted with water to the desired concentration. Eight to ten adult engorged female Boophilus microplus ticks are placed in perforated plastic beakers and immersed in aqueous compound solution for one minute. Ticks are transferred to a filter paper in a plastic tray. Egg deposition of fertile eggs is monitored after. After 7 days mortality in % is determined. 100% means that all the ticks have been killed; 0% means that none of the ticks have been killed.

Amblyomma hebraeum = details: 100 ppm; nymphs immersed one minute, after 42 days
Boophilus microplus [2] = assay: Boophilus microplus test (injection); details: 20 μg/animal; injection into abdomen of adult engorged females, after 7 days
Lucilia cuprina = Lucilia cuprina (48 hrs) larval test; details: 100 ppm; 1st instar larvae, after 2 days
Protocol: BIOLOGICAL TEST EXAMPLE 8
Species: Lucilia cuprina 1st Instar Larvae (Age 24 Hrs)
as §1
10 mg active compound are dissolved in 0.5 ml dimethyl sulfoxide. Serial dilutions are made to obtain the desired rates. Approximately 20 Lucilia cuprina 1st instar larvae are transferred into a test tube containing 1 cm^3 of minced horse meat and 0.5 ml aqueous dilution of test compound.
After 2 days larval mortality in % is recorded. 100% efficacy=all larvae are killed, […].

Musca domestica = Musca domestica test; details: 100 ppm; adults, sugar/compound sponge, after 2 days
Protocol: BIOLOGICAL TEST EXAMPLE 9
as §1
To produce a suitable preparation of active compound, 10 mg of active compound are dissolved in 0.5 ml solvent, and the concentrate is diluted with water to the desired concentration. Prior to the assay, a piece of kitchen sponge is soaked with a mixture of sugar and compound solution and placed into a container. 10 adults (Musca domestica) are placed into the container and closed with a perforated lid.
After 2 days mortality in % is determined. 100% means that all the flies have been killed; 0% means that none of the flies have been killed.

CCC(=O)N[C@@H](C)c1ccc(N2CCC(c3cc(Cl)c(Cl)c(Cl)c3)(C(F)(F)F)C2)cc1 (stereo partly drawn) [Compound 7-b]
100%: activity (mortality in %) (Ctenocephalides felis) | activity (mortality in %) (Boophilus microplus [1]) | activity (mortality in %) (Amblyomma hebraeum) | activity (mortality in %; 100% means that all eggs are infertile) (Boophilus microplus [2]) | activity (larval mortality in %) (Lucilia cuprina) | activity (mortality in %) (Musca domestica)

CCC(=O)N[C@@H](C)c1ccc(N2CCC(c3cc(C(F)(F)F)cc(C(F)(F)F)c3)(C(F)(F)F)C2)cc1 (stereo partly drawn) [Compound 10-b]
100%: activity (mortality in %) (Ctenocephalides felis) | activity (mortality in %) (Boophilus microplus [1]) | activity (mortality in %) (Amblyomma hebraeum) | activity (mortality in %; 100% means that all eggs are infertile) (Boophilus microplus [2]) | activity (larval mortality in %) (Lucilia cuprina) | activity (mortality in %) (Musca domestica)
